Reference: PubChem BioAssay AID1259285 (Sanger Institute, 2017)

Test: 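Search of the kinome for kinases worth combining with drugs in colon cancer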 (primary screen)
System: human HCC56 colorectal cancer cells
Reagent: siRNA pool against human genes
Conditions: DMSO vehicle, or anchor drug BYL719 at 1 µM, cetuximab at 5 µg/ml, or trametinib at 10 nM
Measurement: 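Replicate-averaged viability relative to non-targeting siRNA, expressed as a robust z-score from controls, plus a synergy score for each of three anchor drugs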
Reading the numbers: viability robust z-score, no drug: higher = more viable cells, weaker knock-down effect
Call rule: 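a knock-down counts as essential if its viability z-score without drug is under -3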
Meaning of the calls: active = essential without drug; inactive = no change without drug
Shown is an unselected part of 794 deposited reagents. 20 of all reagents (2.5%) count as active. 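Calls rest on the drug-free arm alone and ignore synergy scores; viability ratios seem to be capped at 1.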 A number with no mark means an inactive call. Not all columns of the deposit are shown. Reagent sequences are not shown. Not given: the amount of reagent, the time to read-out.

With knock-down of IDH2 (isocitrate dehydrogenase (NADP(+)) 2), the record shows viability robust z-score, no drug 0.458.
Against DMPK (DM1 protein kinase), the entry reads viability robust z-score, no drug 0.458.
Knock-down of TBK1 (TANK binding kinase 1) came out at: viability robust z-score, no drug 0.458.
With knock-down of THNSL1 (threonine synthase like 1) the results were viability robust z-score, no drug 0.458.
With knock-down of DGKQ (diacylglycerol kinase theta), the screen gave viability robust z-score, no drug -0.807.
After knock-down of CSNK1A1 (casein kinase 1 alpha 1), the screen gave viability robust z-score, no drug 0.458.
Against MAP3K21 (mitogen-activated protein kinase kinase kinase 21) the deposit lists viability robust z-score, no drug -0.629.
Silencing of PANK4 (pantothenate kinase 4 (inactive)) resulted in: viability robust z-score, no drug -2.4.
EPHA3 (EPH receptor A3) scored viability robust z-score, no drug -2.61.
GUCY2F (guanylate cyclase 2F, retinal) gave viability robust z-score, no drug 0.458.

Already shown: an excerpt of the list.
DMPK (DM1 protein kinase) — viability robust z-score, no drug: 0.458
TBK1 (TANK binding kinase 1) — viability robust z-score, no drug: 0.458

Continued:
Depletion of CDK2 (cyclin dependent kinase 2) resulted in: viability robust z-score, no drug 0.458.
After knock-down of TYK2 (tyrosine kinase 2) the results were viability robust z-score, no drug 0.458.
TEK (TEK receptor tyrosine kinase) showed viability robust z-score, no drug 0.458.
After knock-down of PIK3R2 (phosphoinositide-3-kinase regulatory subunit 2), the record shows viability robust z-score, no drug 0.458.
Silencing of MAP3K9 (mitogen-activated protein kinase kinase kinase 9) resulted in: viability robust z-score, no drug -0.652.
Depletion of GRK3 (G protein-coupled receptor kinase 3) resulted in: viability robust z-score, no drug 0.458.
After knock-down of PRKCQ (protein kinase C theta), the record shows viability robust z-score, no drug -0.991.
Knock-down of SPHK2 (sphingosine kinase 2) gave: viability robust z-score, no drug 0.458.
For GSK3B (glycogen synthase kinase 3 beta), the entry reads viability robust z-score, no drug 0.458.
